Assay results as given in PubChem BioAssay AID204 (DTP/NCI, 2004).
The list does not hold the whole screen: its compounds were picked by chemical class. Not every dose and run of a compound is shown. T/C is the treated group as % of the vehicle group. For survival time, this PubChem deposit counts one and a half times the control or more as active, and values a quarter to a half above the control carry no call in these data; other NCI protocols may use other cut-offs. Some T/C values are marked as having no survivor count here; that says nothing about deaths at the dose. Schedule codes are those of the source, taken here to give the interval after Q, in days (D) or hours (H), and the number of doses after X. Some entries hold several experiments; their values stand side by side, smallest first.

System: BDF1 mice, P288 methotrexate-resistant leukemia, survival T/C
Assay: NCI In Vivo Anticancer Drug Screen. Data for tumor model P288 Lymphocytic Leukemia resistant to methotrexate; NSC 740 (intraperitoneal) in B6D2F1 (BDF1) mice
Details: T/C endpoint: median survival time, schedule: Q01DX010 (ip), vehicle: saline, higher T/C = longer survival
Procedure: The antitumor activity of compounds was measured in mice bearing transplantable tumors. Survival or tumor size were measured and the results are expressed as the measurement made in the treated group (T) divided by the measurement made in the vehicle treated control group (C). The tumor model used in this assay is P288 Lymphocytic Leukemia resistant to methotrexate; NSC 740 (intraperitoneal) in B6D2F1 (BDF1) mice

CN(CCCl)CCCl
T/C (dose: 0.13 mg/kg/injection): 105 [survivor count not shown] and 156 % of control [survivor count not shown]
T/C (dose: 0.25 mg/kg/injection): 138 [survivor count not shown] and 156 % of control [survivor count not shown]
T/C (dose: 0.5 mg/kg/injection): 156 [survivor count not shown] and 177 % of control [survivor count not shown]
T/C (dose: 1.0 mg/kg/injection): 105 [survivor count not shown] and 112 % of control [survivor count not shown]
